PMC10560722
These are yes or no findings as the source states them, for the method shown. For some assays here: Binding seen in cells or lysates may run through a third protein. Some entries that bind do so weakly or less than the wild type. For some assays here: Sequences can lack the tags named with a protein.

Legend:
[1] = biological target: T1, human SHQ1 variant A426V with a C-terminal FLAG tag (human) (UniProt Q6PI26); experiment: co-IP; anti-FLAG M2 affinity gel with whole cell extracts of yeast strain YSO12 expressing hSHQ1-FLAG or variants, cells shifted to SDex-Ura for 2 h at 30°C; TMN100 buffer (25 mM Tris-HCl pH 7.9, 10 mM MgCl2, 100 mM NaCl, 0.1% NP-40, 1 mM DTT), 4°C, 2 h; Western blot with anti-myc; uncoated beads as control
T1 sequence: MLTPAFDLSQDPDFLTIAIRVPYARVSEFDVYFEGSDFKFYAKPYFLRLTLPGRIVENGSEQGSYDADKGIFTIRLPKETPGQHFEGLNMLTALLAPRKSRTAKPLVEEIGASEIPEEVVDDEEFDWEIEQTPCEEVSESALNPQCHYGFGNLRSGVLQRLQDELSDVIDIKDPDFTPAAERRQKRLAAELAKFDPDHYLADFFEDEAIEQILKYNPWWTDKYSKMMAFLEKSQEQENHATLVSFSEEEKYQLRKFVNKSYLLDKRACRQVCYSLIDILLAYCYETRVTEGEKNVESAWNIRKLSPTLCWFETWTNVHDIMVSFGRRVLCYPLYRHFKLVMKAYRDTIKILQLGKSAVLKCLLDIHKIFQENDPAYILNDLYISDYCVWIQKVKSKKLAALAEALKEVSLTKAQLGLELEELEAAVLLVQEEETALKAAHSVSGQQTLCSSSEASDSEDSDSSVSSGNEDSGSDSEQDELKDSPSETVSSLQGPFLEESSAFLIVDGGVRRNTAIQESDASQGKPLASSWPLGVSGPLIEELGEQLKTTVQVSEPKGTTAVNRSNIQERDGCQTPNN

[2] = biological target: T2, human SHQ1 variant R335C with a C-terminal FLAG tag (human) (UniProt Q6PI26); experiment: as above
T2 sequence: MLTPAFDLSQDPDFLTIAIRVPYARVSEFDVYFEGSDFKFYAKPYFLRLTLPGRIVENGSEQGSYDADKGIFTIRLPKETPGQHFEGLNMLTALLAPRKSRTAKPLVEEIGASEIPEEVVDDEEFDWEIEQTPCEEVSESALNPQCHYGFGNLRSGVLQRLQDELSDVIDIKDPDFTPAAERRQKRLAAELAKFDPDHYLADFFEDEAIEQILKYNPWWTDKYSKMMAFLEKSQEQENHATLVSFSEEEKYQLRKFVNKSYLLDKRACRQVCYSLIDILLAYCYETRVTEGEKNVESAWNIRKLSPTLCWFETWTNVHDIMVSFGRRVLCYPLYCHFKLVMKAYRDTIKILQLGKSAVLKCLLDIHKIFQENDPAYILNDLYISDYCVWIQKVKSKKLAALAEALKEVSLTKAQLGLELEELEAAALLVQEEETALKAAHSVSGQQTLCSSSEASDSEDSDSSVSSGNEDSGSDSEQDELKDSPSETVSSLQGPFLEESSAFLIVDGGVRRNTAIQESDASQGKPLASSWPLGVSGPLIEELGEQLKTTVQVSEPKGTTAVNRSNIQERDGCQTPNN

[3] = biological target: T3, human SHQ1 with a C-terminal FLAG tag (wild-type) (human) (UniProt Q6PI26); experiment: as above
T3 sequence: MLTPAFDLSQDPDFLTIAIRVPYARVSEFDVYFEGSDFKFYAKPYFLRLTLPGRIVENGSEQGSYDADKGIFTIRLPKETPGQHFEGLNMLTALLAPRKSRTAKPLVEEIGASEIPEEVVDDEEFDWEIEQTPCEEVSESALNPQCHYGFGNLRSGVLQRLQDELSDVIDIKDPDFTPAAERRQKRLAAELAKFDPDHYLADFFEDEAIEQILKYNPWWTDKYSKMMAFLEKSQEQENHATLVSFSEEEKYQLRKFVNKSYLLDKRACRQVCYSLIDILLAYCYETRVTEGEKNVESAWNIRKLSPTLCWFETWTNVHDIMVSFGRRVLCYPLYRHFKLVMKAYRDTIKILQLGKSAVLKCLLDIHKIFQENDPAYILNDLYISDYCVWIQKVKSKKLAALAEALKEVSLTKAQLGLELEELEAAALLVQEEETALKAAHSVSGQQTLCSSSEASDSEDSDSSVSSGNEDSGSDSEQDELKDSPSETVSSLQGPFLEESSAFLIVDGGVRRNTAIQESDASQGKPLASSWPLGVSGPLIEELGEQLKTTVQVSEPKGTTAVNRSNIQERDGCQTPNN

[4] = biological target: T4, miniDKC1∆cat (truncated human dyskerin) two-hybrid bait (human) (UniProt O60832); experiment: two-hybrid; strain AH109; miniDKC1∆cat as bait (pGBKT7), hSHQ1 or variants as prey (pGADT7); growth on SDex-Trp-Leu-His plates with various concentrations of 3-AT, 4 days at 30°C
T4 sequence: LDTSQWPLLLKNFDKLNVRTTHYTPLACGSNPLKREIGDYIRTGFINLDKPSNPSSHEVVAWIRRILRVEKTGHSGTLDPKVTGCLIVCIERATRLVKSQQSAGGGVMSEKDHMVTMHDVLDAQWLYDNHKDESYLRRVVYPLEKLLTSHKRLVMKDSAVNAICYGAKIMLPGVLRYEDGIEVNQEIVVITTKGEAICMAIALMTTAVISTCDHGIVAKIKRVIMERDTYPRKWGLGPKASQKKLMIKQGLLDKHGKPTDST

B1: myc-tagged Cbf5 (yeast pseudouridine synthase, homologue of dyskerin) (enzyme, UniProt P33322 1-483)
chain: MSKEDFVIKPEAAGASTDTSEWPLLLKNFDKLLVRSGHYTPIPAGSSPLKRDLKSYISSGVINLDKPSNPSSHEVVAWIKRILRCEKTGHSGTLDPKVTGCLIVCIDRATRLVKSQQGAGKEYVCIVRLHDALKDEKDLGRSLENLTGALFQRPPLISAVKRQLRVRTIYESNLIEFDNKRNLGVFWASCEAGTYMRTLCVHLGMLLGVGGHMQELRRVRSGALSENDNMVTLHDVMDAQWVYDNTRDESYLRSIIQPLETLLVGYKRIVVKDSAVNAVCYGAKLMIPGLLRYEEGIELYDEIVLITTKGEAIAVAIAQMSTVDLASCDHGVVASVKRCIMERDLYPRRWGLGPVAQKKKQMKADGKLDKYGRVNENTPEQWKKEYVPLDNAEQSTSSSQETKETEEEPKKAKEDSLIKEVETEKEEVKEDDSKKEKKEKKDKKEKKEKKEKKDKKEKKEKKEKKRKSEDGDSEEKKSKKSKK
binding [1]: binds
binding [2]: binds
binding [3]: binds

B2: human SHQ1 (wild-type) two-hybrid prey (protein, UniProt Q6PI26 1-577)
chain: MLTPAFDLSQDPDFLTIAIRVPYARVSEFDVYFEGSDFKFYAKPYFLRLTLPGRIVENGSEQGSYDADKGIFTIRLPKETPGQHFEGLNMLTALLAPRKSRTAKPLVEEIGASEIPEEVVDDEEFDWEIEQTPCEEVSESALNPQCHYGFGNLRSGVLQRLQDELSDVIDIKDPDFTPAAERRQKRLAAELAKFDPDHYLADFFEDEAIEQILKYNPWWTDKYSKMMAFLEKSQEQENHATLVSFSEEEKYQLRKFVNKSYLLDKRACRQVCYSLIDILLAYCYETRVTEGEKNVESAWNIRKLSPTLCWFETWTNVHDIMVSFGRRVLCYPLYRHFKLVMKAYRDTIKILQLGKSAVLKCLLDIHKIFQENDPAYILNDLYISDYCVWIQKVKSKKLAALAEALKEVSLTKAQLGLELEELEAAALLVQEEETALKAAHSVSGQQTLCSSSEASDSEDSDSSVSSGNEDSGSDSEQDELKDSPSETVSSLQGPFLEESSAFLIVDGGVRRNTAIQESDASQGKPLASSWPLGVSGPLIEELGEQLKTTVQVSEPKGTTAVNRSNIQERDGCQTPNN
binding [4]: binds

B3: human SHQ1 variant A426V two-hybrid prey (protein, UniProt Q6PI26 1-577)
chain: MLTPAFDLSQDPDFLTIAIRVPYARVSEFDVYFEGSDFKFYAKPYFLRLTLPGRIVENGSEQGSYDADKGIFTIRLPKETPGQHFEGLNMLTALLAPRKSRTAKPLVEEIGASEIPEEVVDDEEFDWEIEQTPCEEVSESALNPQCHYGFGNLRSGVLQRLQDELSDVIDIKDPDFTPAAERRQKRLAAELAKFDPDHYLADFFEDEAIEQILKYNPWWTDKYSKMMAFLEKSQEQENHATLVSFSEEEKYQLRKFVNKSYLLDKRACRQVCYSLIDILLAYCYETRVTEGEKNVESAWNIRKLSPTLCWFETWTNVHDIMVSFGRRVLCYPLYRHFKLVMKAYRDTIKILQLGKSAVLKCLLDIHKIFQENDPAYILNDLYISDYCVWIQKVKSKKLAALAEALKEVSLTKAQLGLELEELEAAVLLVQEEETALKAAHSVSGQQTLCSSSEASDSEDSDSSVSSGNEDSGSDSEQDELKDSPSETVSSLQGPFLEESSAFLIVDGGVRRNTAIQESDASQGKPLASSWPLGVSGPLIEELGEQLKTTVQVSEPKGTTAVNRSNIQERDGCQTPNN
binding [4]: binds
